# According to PMC3778944:
# Protein sequences, listed by entry. Tags and fused reporters are not part of them.
# UniProt Q9NUW8, whole entry: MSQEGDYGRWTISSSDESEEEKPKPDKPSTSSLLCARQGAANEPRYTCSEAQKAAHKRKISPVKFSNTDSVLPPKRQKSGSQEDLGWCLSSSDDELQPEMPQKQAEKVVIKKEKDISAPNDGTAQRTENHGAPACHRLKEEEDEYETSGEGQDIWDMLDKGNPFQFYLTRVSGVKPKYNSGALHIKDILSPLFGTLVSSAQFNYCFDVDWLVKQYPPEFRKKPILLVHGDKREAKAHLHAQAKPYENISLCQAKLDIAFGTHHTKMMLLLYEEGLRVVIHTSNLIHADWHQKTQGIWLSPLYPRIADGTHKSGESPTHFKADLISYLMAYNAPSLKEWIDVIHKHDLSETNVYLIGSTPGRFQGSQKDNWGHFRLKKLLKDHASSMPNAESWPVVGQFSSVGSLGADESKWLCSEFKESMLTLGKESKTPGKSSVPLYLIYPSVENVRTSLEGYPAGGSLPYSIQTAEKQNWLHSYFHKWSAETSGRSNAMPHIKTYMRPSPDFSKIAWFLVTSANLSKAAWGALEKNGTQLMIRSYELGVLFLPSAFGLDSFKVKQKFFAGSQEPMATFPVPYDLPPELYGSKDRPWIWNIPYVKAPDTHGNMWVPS
# The exact form of at least one protein or probe is not confirmed. At least one verdict was read from the data and is not stated in words by the source.
# Biological target: Tdp1 wild-type (human) (UniProt Q9NUW8)
# Assay: EMSA
# Conditions: 1-10 nM Tdp1, on ice, made by UDG, 50 mM Tris-HCl pH 7.5, 50 mM KCl, 10 nM 5'-32P DNA, UDG pretreatment (0.5 U/ul, 15 min, 37 C), complexes formed on ice, 5% native PAGE in TBE at 4 C, recombinant protein, protein details: Ni-chelating resin purification (His tag implied)
Sequence,"binding result (AP site at the U of strand 1 (position 25), label: 5'-32P (strand 1))","binding result (AP site at the U (position 25), label: 5'-32P, single-stranded DNA)"
CTATGGCGAGGCGATTAAGTTGGGUACGTCAGGGTCTTCCGAACGAC / GTCGTTCGGAAGACCCTGACGTTGCCCAACTTAATCGCCTCGCCATAG [dsAP-DNA],binds,
CTATGGCGAGGCGATTAAGTTGGGUACGTCAGGGTCTTCCGAACGAC [ssAP-DNA],,binds
